The source of these data is patent publication US10105437B2 (BTG International Limited, priority 2004, dated 2018).

Plain letter strings leave the end groups untold.

The data set is described as follows: peptide made by a vendor. The conditions noted are these: whole synthesis, reverse phase-HPLC, amino acid sequence analysis or mass spectroscopy, scale of the general procedure approximately 0.6 micromole (first library), approximately 0.

Take IKDFHVYFRESRDALWKGPG: the “purity (crude or final not stated)” value runs as follows: (run 1) 50%; (run 2) 64% (range: 55-71%).
As to VLQQHNIAHGSSQVLQESTY, the “purity (crude or final not stated)” value is on record as 19%.
